Results are given in words; binding and its absence hold for the method and conditions named. Some entries that bind do so weakly or less than the wild type. Where a sequence is shown, tags or fusion partners need not be part of it.

Binding data for one molecule are collected here from US20030180892A1.

Assay [1] deals with T1, IL-17 receptor homolog Fc fusion (IL-17RH-Fc) (UniProt Q9NRM6).
T1 sequence (looked up): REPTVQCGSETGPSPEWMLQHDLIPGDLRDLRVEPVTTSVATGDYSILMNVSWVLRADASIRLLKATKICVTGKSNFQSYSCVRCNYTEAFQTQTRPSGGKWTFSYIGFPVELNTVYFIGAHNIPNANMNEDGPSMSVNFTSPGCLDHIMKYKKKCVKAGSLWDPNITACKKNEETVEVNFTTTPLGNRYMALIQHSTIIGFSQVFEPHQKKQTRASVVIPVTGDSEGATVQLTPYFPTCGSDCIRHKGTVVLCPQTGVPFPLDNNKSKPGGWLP
The assay is described as follows: BIAcore (SPR), summary of Example 31.

The target of assay [2] is T1, IL-17 receptor homolog Fc fusion (IL-17RH-Fc). The assay is described as follows: BIAcore (SPR), receptor-Fc immobilized on flow cell; two CHO cell IL-20 preparations.

B1: IL-20 polypeptide expressed in CHO cells (conditioned culture supernatants of clones 10, 16 and 22; HS50 cation-exchange fractions; CHO cell IL-20 preparations) (ligand)
chain: RSPKSKRKGQGRPGPLAPGPHQVPLDLVSRMKPYARMEEYERNIEEMVAQLRNSSELAQRKCEVNLQLWMSNKRSLSPWGYSINHDPSRIPVDLPEARCLCLGCVNPFTMQEDRSMVSVPVFSQVPVRRRLCPPPPRTGPCRQRAVMETIAVGCTCIF
modifications: glycosylated; single N-glycosylation site at residue 75 (FIG. 1 numbering)
Regarding B1, the binding entry in assay [1] and in assay [2] was “binds” each time.
